From patent US9125855B2, “Prevention of Salmonella recrudescense” (priority 2011, dated 2015)
At least one compound was matched to its structure with a doubt left.

How the values were obtained:
[1] = system: Salmonella Typhimurium in PAM; assay: Invasion assay in PAM; assay type: cell-based, porcine; conditions: 0.001 to 100 μM
Experimental: (§1) For the invasion assays, PAM and IPEC-J2 cells were seeded in 24-well plates at a density of approximately 5×10^5 cells and 10^5 cells per well, respectively. PAM were allowed to attach for at least 2 hours and IPEC-J2 cells were allowed to grow for at least 24 hours. […] After 24 hours the invasion assay was performed as described by Boyen et al., 2009a. Finally the PAM and IPEC-J2 cells were washed 3 times and lysed for 10 min with 1% (v/v) Triton X-100 or 0.2% (w/v) sodium deocxycholate (Sigma-Aldrich), respectively and 10-fold dilutions were plated on BGA plates.

[2] = system: Salmonella Typhimurium in IPEC-J2 cells; assay: Intracellular survival assay in IPEC-J2 cells; assay type: cell-based, porcine; conditions: 0.001 to 100 μM
Experimental: The polarized intestinal porcine epithelial (IPEC-J2) cell line is derived from jejunal epithelia isolated from a neonatal piglet (Rhoads et al., 1994; Schierack et al., 2006).
(§2) The number of viable bacteria was assessed 24 hours after infection.

[3] = system: Salmonella Typhimurium strain 112910aNal^20; assay: Mice model of dexamethasone induced recrudescence, DBA/2J mice; assay type: in vivo; conditions: s.c. 100 mg/kg or 2x25 mg/kg, 14 days p.i.
[4] = system: Salmonella Typhimurium strain 112910aNal^20; assay: Mice model of dexamethasone induced recrudescence, BALB/c mice; conditions: s.c. dexamethasone, 7 days p.i., P>0.05
[5] = system: Salmonella Typhimurium in IPEC-J2 cells; assay: Invasion assay in IPEC-J2 cells; assay type: cell-based, porcine; conditions: 0.001 to 100 μM
Experimental: as §1

[6] = system: Salmonella Typhimurium in PAM; assay: Intracellular survival assay in PAM; assay type: cell-based, porcine; conditions: 24 hours
Source text: Porcine pulmonary alveolar macrophages (PAM) were isolated by broncho-alveolar washes from lungs of euthanized 3 to 4 week old piglets, obtained from a Salmonella-negative farm, as described previously (Dom et al., 1992). The isolated cells were pooled and frozen in liquid nitrogen until further use. Prior to seeding the cells, frozen aliquots of approximately 10^8 cells per ml were thawed and washed 3 times in Hank's buffered salt solution with Ca^2+ and Mg^2+ (HBSS+, Gibco) with 10% (v/v) fetal calf serum (FKS, Hyclone, Cramlington, England) at 4° C. Finally, these cells were cultured in Roswell Park Memorial Institute medium (RPMI, Gibco) containing 10% (v/v) FKS, 1% (v/v) L-glutamine (Gibco), 1% (v/v) sodium pyruvate (Gibco), 1% (v/v) MEM non essential amino acids (NEAA, Gibco) and 1% (v/v) penicillin-streptomycin (Gibco).
as §2
Following the IVET screening, the intracellular survival assay was repeated with Salmonella Typhimurium ΔscsA and ΔcbpA and compared to the WT.

Salmonella Typhimurium = assay: Effect of dexamethasone on the Salmonella Typhimurium load in carrier pigs; assay type: in vivo; conditions: 2 mg per kg i.m.

Which results are given for C[C@@H]1C[C@H]2[C@@H]3CCC4=CC(=O)C=C[C@]4(C)[C@@]3(F)[C@@H](O)C[C@]2(C)[C@@]1(O)C(=O)CO [dexamethasone]?
invasion in PAM [1]: did neither affect; intracellular proliferation of Salmonella Typhimurium in IPEC-J2 cells [2]: did neither affect; number of Salmonella Typhimurium bacteria in the spleen, the liver and the cecum compared to saline [3]: significantly (P<0.05) higher; number of Salmonella Typhimurium bacteria in spleen, liver and cecum compared to HBSS [4]: not significantly different; invasion in IPEC-J2 cells [5]: did neither affect; intracellular proliferation of Salmonella Typhimurium in treated PAM in comparison to non-treated cells [6]: higher; increase of Salmonella Typhimurium in ileum, colon and caecum (Salmonella Typhimurium; ileum p=0.018, colon p=0.003, caecum p=0.014): significant; number of Salmonella Typhimurium in ileum contents, caecum contents and colon contents (Salmonella Typhimurium; p=0.067, p=0.157, p=0.229): also increased; numbers of Salmonella Typhimurium in gut tissues and contents in comparison to the control group (Salmonella Typhimurium; carrier pigs, 24 hours before euthanasia): elevated numbers
